Reference: PubChem BioAssay AID330 (DTP/NCI, 2004)
The list shows only some results of the screen, not a fair sample: it is rich in T/C values a quarter to a half above the control, in often repeated tests (any T/C) and in doses without a T/C. Further doses and runs are listed elsewhere. T/C: endpoint of the treated group in % of that of the vehicle group. Some doses have a count of surviving animals in place of a T/C: the source holds a T/C of zero for them, seemingly a mark for toxic or unscored doses. Some doses without a T/C left all or most animals alive at the check, yet need not have been tolerated: survival well below the control is almost never listed, so the zero probably covers shortened survival too. Survivors were counted at the toxicity check, usually on the fifth day, unless a day is given; later deaths do not show. Schedule codes are those of the source, read here as Q, the interval in days (D) or hours (H), X, the number of doses. Where survival is the endpoint, the PubChem record calls one and a half times the control and up active, and a quarter to a half above the control has no call in these data; cut-offs in other NCI protocols can differ. Some T/C values are followed by the survivors on the day toxicity was checked, most often the fifth; without a count, all were alive then. Some entries hold several experiments; their values stand side by side, smallest first. Counts like (3×) say how often a value occurs here.

Tested on: P388 leukemia ip, CD2F1 mice, survival T/C
Experiment: NCI In Vivo Anticancer Drug Screen. Data for tumor model P388 Leukemia (intraperitoneal) in CD2F1 (CDF1) mice
Conditions: T/C endpoint: median survival time, higher T/C = longer survival

Structure (SMILES): CC[C@]1(O)C[C@H]2CN(CCc3c([nH]c4ccccc34)[C@@](C(=O)OC)(c3cc4c(cc3OC)N(C=O)[C@H]3[C@@](O)(C(=O)OC)[C@H](OC(C)=O)[C@]5(CC)C=CCN6CC[C@]43[C@@H]65)C2)C1
- T/C (dose: 0.03 mg/kg/injection, schedule: Q01DX009 (ip), vehicle: water): 108, 141, 142, 144, 180 % of control
- T/C (dose: 0.06 mg/kg/injection, schedule: Q01DX009 (ip), vehicle: saline, evaluated on day 5): 168 % of control
- T/C (dose: 0.06 mg/kg/injection, schedule: Q01DX009 (ip), vehicle: saline, evaluated on day 30): 145 and 190 % of control
- T/C (dose: 0.06 mg/kg/injection, schedule: Q01DX009 (ip), vehicle: saline, evaluated on day 60): 172 % of control
- T/C (dose: 0.06 mg/kg/injection, schedule: Q01DX009 (ip), vehicle: water): 118, 137, 144, 147, 150, 185, 207 % of control
- T/C (dose: 0.06 mg/kg/injection, schedule: Q04DX003 (ip), vehicle: saline): 140 % of control
- T/C (dose: 0.11 mg/kg/injection, schedule: Q01DX005 (ip), vehicle: saline): 125 % of control
- T/C (dose: 0.12 mg/kg/injection, schedule: Q01DX009 (ip), vehicle: saline, evaluated on day 5): 172 % of control
- T/C (dose: 0.12 mg/kg/injection, schedule: Q01DX009 (ip), vehicle: saline, evaluated on day 30): 125 and 205 % of control
- T/C (dose: 0.12 mg/kg/injection, schedule: Q01DX009 (ip), vehicle: saline, evaluated on day 60): 172 % of control
- T/C (dose: 0.12 mg/kg/injection, schedule: Q01DX009 (ip), vehicle: water): 125 % of control
- T/C (dose: 0.13 mg/kg/injection, schedule: Q01DX009 (ip), vehicle: water): 123, 132, 149, 151, 157, 195 % of control
- T/C (dose: 0.2 mg/kg/injection, schedule: Q01DX005 (ip), vehicle: saline): 147 % of control
- T/C (dose: 0.2 mg/kg/injection, schedule: Q01DX009 (ip), vehicle: saline): 137 % of control [5 of 6 alive]
- T/C (dose: 0.2 mg/kg/injection, schedule: Q04DX003 (ip), vehicle: water): 149 % of control
- T/C (dose: 0.25 mg/kg/injection, schedule: Q01DX001 (ip), vehicle: saline, evaluated on day 5): 132 % of control
- T/C (dose: 0.25 mg/kg/injection, schedule: Q01DX001 (ip), vehicle: saline, evaluated on day 30): 126, 137 (2×), 148, 150 (2×), 151, 157 % of control
- T/C (dose: 0.25 mg/kg/injection, schedule: Q01DX001 (ip), vehicle: water, evaluated on day 5): 127 and 139 % of control
- T/C (dose: 0.25 mg/kg/injection, schedule: Q01DX001 (ip), vehicle: water, evaluated on day 30): 134, 142, 144 % of control
- T/C (dose: 0.25 mg/kg/injection, schedule: Q01DX009 (ip), vehicle: saline, evaluated on day 5): 205 % of control
- T/C (dose: 0.25 mg/kg/injection, schedule: Q01DX009 (ip), vehicle: saline, evaluated on day 30): 97 and 150 % of control
- T/C (dose: 0.25 mg/kg/injection, schedule: Q01DX009 (ip), vehicle: saline, evaluated on day 60): 209 % of control
- T/C (dose: 0.25 mg/kg/injection, schedule: Q01DX009 (ip), vehicle: water): 97, 108, 144, 169, 183, 192, 224 % of control
- T/C (dose: 0.25 mg/kg/injection, schedule: Q04DX003 (ip), vehicle: saline, evaluated on day 5): 163 % of control
- T/C (dose: 0.25 mg/kg/injection, schedule: Q04DX003 (ip), vehicle: saline, evaluated on day 9): 119, 123, 125 % of control
- T/C (dose: 0.25 mg/kg/injection, schedule: Q04DX003 (ip), vehicle: saline, evaluated on day 30): 178 % of control
- T/C (dose: 0.25 mg/kg/injection, schedule: Q04DX003 (ip), vehicle: saline, evaluated on day 35): 167 % of control
- T/C (dose: 0.25 mg/kg/injection, schedule: Q04DX003 (ip), vehicle: saline, evaluated on day 45): 160, 162, 174 % of control
- T/C (dose: 0.25 mg/kg/injection, schedule: Q04DX003 (ip), vehicle: saline, evaluated on day 60): 172 % of control
- T/C (dose: 0.26 mg/kg/injection, schedule: Q04DX003 (ip), vehicle: saline): 143, 144, 147 % of control
- T/C (dose: 0.3 mg/kg/injection, schedule: Q01DX005 (ip), vehicle: saline): 126 % of control
- survivor count (dose: 0.4 mg/kg/injection, schedule: Q01DX009 (ip), vehicle: saline): 6 of 6
- T/C (dose: 0.43 mg/kg/injection, schedule: Q04DX003 (ip), vehicle: saline): 145, 165, 166, 170 % of control
- T/C (dose: 0.5 mg/kg/injection, schedule: Q01DX001 (ip), vehicle: Klucel (hydroxypropylcellulose) (HPC)): 134 and 142 % of control
- T/C (dose: 0.5 mg/kg/injection, schedule: Q01DX001 (ip), vehicle: saline with Tween-80): 131 % of control
- T/C (dose: 0.5 mg/kg/injection, schedule: Q01DX001 (ip), vehicle: saline, evaluated on day 5): 119, 124, 133, 137, 141 (2×), 144, 145 % of control
- T/C (dose: 0.5 mg/kg/injection, schedule: Q01DX001 (ip), vehicle: saline, evaluated on day 30): 127, 131, 135 (2×), 145, 150, 155, 160, 161, 162, 166, 178 % of control (2×)
- T/C (dose: 0.5 mg/kg/injection, schedule: Q01DX001 (ip), vehicle: water, evaluated on day 3): 149 % of control
- T/C (dose: 0.5 mg/kg/injection, schedule: Q01DX001 (ip), vehicle: water, evaluated on day 5): 136, 138, 143, 145 (2×), 146, 156 % of control
- T/C (dose: 0.5 mg/kg/injection, schedule: Q01DX001 (ip), vehicle: water, evaluated on day 6): 131, 135, 150 % of control
- T/C (dose: 0.5 mg/kg/injection, schedule: Q01DX001 (ip), vehicle: water, evaluated on day 10): 108 % of control
- T/C (dose: 0.5 mg/kg/injection, schedule: Q01DX001 (ip), vehicle: water, evaluated on day 20): 140 % of control
- T/C (dose: 0.5 mg/kg/injection, schedule: Q01DX001 (ip), vehicle: water, evaluated on day 30): 129, 130 (2×), 133 (2×), 133 [5 of 6 alive], 135 (3×), 136 (4×), 138, 139 (2×), 142, 143 (3×), 145, 146 (3×), 149, 155 (2×), 159 [4 of 6 alive], 160, 161, 163 (3×), 171 % of control
- T/C (dose: 0.5 mg/kg/injection, schedule: Q01DX001 (ip), vehicle: water, evaluated on day 35): 126 % of control
- T/C (dose: 0.5 mg/kg/injection, schedule: Q01DX001 (iv), vehicle: saline): 131 % of control
- T/C (dose: 0.5 mg/kg/injection, schedule: Q01DX005 (ip), vehicle: saline, evaluated on day 5): 135 % of control
- T/C (dose: 0.5 mg/kg/injection, schedule: Q01DX005 (ip), vehicle: saline, evaluated on day 9): 117 % of control
- T/C (dose: 0.5 mg/kg/injection, schedule: Q01DX005 (ip), vehicle: saline, evaluated on day 45): 206 and 207 % of control
